Laboratory results published in paper PMC10023157.
Construct, isoform or probe ends are uncertain for at least one entry. At least one verdict was read from the data and is not stated in words by the source.

Amino acid sequences for entries named in this document (tags omitted). Residues count along the entry.
UniProt Q07955, whole entry: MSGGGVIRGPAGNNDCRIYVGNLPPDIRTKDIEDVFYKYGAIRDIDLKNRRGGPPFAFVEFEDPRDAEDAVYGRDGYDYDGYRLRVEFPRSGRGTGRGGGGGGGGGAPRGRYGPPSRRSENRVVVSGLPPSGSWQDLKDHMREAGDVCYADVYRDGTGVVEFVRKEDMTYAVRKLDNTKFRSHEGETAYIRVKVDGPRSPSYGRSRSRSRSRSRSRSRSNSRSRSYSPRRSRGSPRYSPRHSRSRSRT
UniProt Q07955, 1-196, stated change not applied: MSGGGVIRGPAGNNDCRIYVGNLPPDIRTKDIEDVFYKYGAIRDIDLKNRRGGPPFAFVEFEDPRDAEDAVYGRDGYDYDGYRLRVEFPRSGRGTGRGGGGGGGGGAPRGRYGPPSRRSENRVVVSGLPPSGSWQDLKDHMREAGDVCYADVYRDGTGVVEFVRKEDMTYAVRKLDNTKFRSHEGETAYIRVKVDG

Experiments:
[1] = molecular target: SRSF1 (unphosphorylated) (human) (UniProt Q07955); test: fluorescence polarization; details: 100 mM ER4, 400 mM Arg/Glu, pH 6.5, binding weakened but not abolished, Kd only in figure, Fluorescence polarization: 100 mM ER4 peptide, temperature not stated, three technical replicates, recombinant protein, protein details: SUMO (pSMT3) His tag removed by Ulp1, label: 5' Alexa488
SRSF1 deltaRS (human) = SRSF1 deltaRS (human) (UniProt Q07955); details: recombinant protein; protein details: SUMO (pSMT3) His tag removed by Ulp1

| Sequence | binding result [1] | binding result (SRSF1 deltaRS (human)) |
| --- | --- | --- |
| UCAGAGGA [Alexa488-UCAGAGGA] | binds | – |
| UCAGAGGA [UCAGAGGA (SRSF1 cognate RNA)] | – | binds |
